For at least one entry, the source does not settle the construct or the ends of the probe. At least one verdict rests on a figure or table, not on a statement of the authors.
Molecular target: Ded1p WT (Saccharomyces cerevisiae) (UniProt P06634)
Test: RNA-stimulated ATPase, RNA titration (apparent affinity, Michaelis-Menten)
Settings: ATP, 30 and 37 C; RNA-stimulated ATPase at 30 and 37 C; recombinant protein; protein details: N-terminal His6

By UniProt entry, the sequences of proteins in these tests, tags left out. Where a name states a change or a piece, a line headed by the entry shows the natural chain unless it says otherwise.
UniProt P06634: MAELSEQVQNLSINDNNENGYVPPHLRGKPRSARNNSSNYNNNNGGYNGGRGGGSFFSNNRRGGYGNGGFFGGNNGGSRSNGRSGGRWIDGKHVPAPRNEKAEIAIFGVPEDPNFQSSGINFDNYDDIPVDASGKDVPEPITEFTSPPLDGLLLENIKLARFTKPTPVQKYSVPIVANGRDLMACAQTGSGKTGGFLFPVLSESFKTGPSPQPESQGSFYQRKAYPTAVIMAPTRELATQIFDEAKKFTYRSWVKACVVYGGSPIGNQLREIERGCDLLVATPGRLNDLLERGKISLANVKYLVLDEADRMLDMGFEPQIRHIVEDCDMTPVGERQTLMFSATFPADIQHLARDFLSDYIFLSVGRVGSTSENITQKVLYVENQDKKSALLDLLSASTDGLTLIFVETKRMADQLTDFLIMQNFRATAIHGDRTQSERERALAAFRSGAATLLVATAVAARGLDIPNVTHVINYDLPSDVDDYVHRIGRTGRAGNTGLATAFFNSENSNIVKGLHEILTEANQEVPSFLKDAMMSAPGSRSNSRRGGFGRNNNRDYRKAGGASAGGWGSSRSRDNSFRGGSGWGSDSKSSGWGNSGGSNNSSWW

GCGUCUUUACGGUGCUUAAAACAAAACAAAACAAAACAAAA / AGCACCGUAAAGACGC [16 bp, 25 nt 3'-overhang RNA]
binding result: binds
